Experimental findings from the supplement of paper PMC9233669 are described below.

The test system of one data set is biotinyl-Phe-oxazolone. The data set is described as follows: self-aminoacylation, catalytic enhancement (BFO) (fold over background); higher = more active; k-Seq, kA / k0A0; sequences stand for … in GGGAAUGGAUCCACAUCUACGAAUUC…UUCACUGCAGACUUGACGAAGCUG
In a few lines:
(§1)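 Catalytic enhancement equals the median kA over the uncatalyzed rate, the latter read from the low-activity peak of a bimodal Gaussian fit. Values of kA came from fitting each sequence's fraction reacted to a pseudo-first-order model, with 1000 bootstraps. Reacted RNA was captured with streptavidin and quantified by triplicate qPCR and Illumina sequencing after 90 minutes at room temperature with 2–1250 μM biotinyl-aminoacyl-oxazolone and 0.43 μM mutagenized RNA pools bearing a 21-nt variable region.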

A further data set relates to biotinyl-Leu-oxazolone. The data set is described as follows: self-aminoacylation, catalytic enhancement (BLO) (fold over background); higher = more active; k-Seq, kA / k0A0; sequences stand for … in GGGAAUGGAUCCACAUCUACGAAUUC…UUCACUGCAGACUUGACGAAGCUG
In a few lines:
as §1

Another data set relates to biotinyl-Met-oxazolone. The data set can be described thus: self-aminoacylation, catalytic enhancement (BMO) (fold over background); higher = more active; k-Seq, kA / k0A0; sequences stand for … in GGGAAUGGAUCCACAUCUACGAAUUC…UUCACUGCAGACUUGACGAAGCUG
Put shortly: as §1

The subject of a further data set is biotinyl-Trp-oxazolone. The data set can be described thus: self-aminoacylation, catalytic enhancement (BWO) (fold over background); higher = more active; k-Seq, kA / k0A0; sequences stand for … in GGGAAUGGAUCCACAUCUACGAAUUC…UUCACUGCAGACUUGACGAAGCUG
In a few lines: as §1

The next data set deals with biotinyl-Ile-oxazolone. The data set is described as follows: self-aminoacylation, catalytic enhancement (BIO) (fold over background); higher = more active; k-Seq, kA / k0A0; sequences stand for … in GGGAAUGGAUCCACAUCUACGAAUUC…UUCACUGCAGACUUGACGAAGCUG
Put shortly:
as §1

A further data set deals with biotinyl-Val-oxazolone. The data set is described as follows: self-aminoacylation, catalytic enhancement (BVO) (fold over background); higher = more active; k-Seq, kA / k0A0; sequences stand for … in GGGAAUGGAUCCACAUCUACGAAUUC…UUCACUGCAGACUUGACGAAGCUG
In a few lines:
as §1

This sample is rich in variants without activity.

As to “CGACACUUCAAACAAUCGGUC [Fam1B.1 aminoacylation ribozyme variant]”, the self-aminoacylation was found to be 22.9 with biotinyl-Phe-oxazolone; 1.71 with biotinyl-Leu-oxazolone; 1.31 with biotinyl-Met-oxazolone; 12.5 with biotinyl-Trp-oxazolone; 1.23 with biotinyl-Ile-oxazolone; 1.64 in the data set on biotinyl-Val-oxazolone.
For the sequence “AAGAUUGCUAAUAGACGCAAG [Fam3.1 aminoacylation ribozyme variant]”, the self-aminoacylation with biotinyl-Phe-oxazolone was 1.22; with biotinyl-Leu-oxazolone, 0.606; with biotinyl-Met-oxazolone, 0.615; with biotinyl-Trp-oxazolone, 0.72; with biotinyl-Ile-oxazolone, 0.766; in the data set on biotinyl-Val-oxazolone it was 0.728.
For “GCACACUUAAAGCAAUCGGUC [Fam1B.1 aminoacylation ribozyme variant]”, the self-aminoacylation is 1.1 with biotinyl-Phe-oxazolone; 1.15 in the data set on biotinyl-Leu-oxazolone; 1.06 in the data set with biotinyl-Met-oxazolone; 1.49 in the data set on biotinyl-Trp-oxazolone; 1.25 in the data set on biotinyl-Ile-oxazolone; 1.18 with biotinyl-Val-oxazolone.
With “CUUCUUCAUACAAUCGGUCUG [Fam1A.1 aminoacylation ribozyme variant]”, the self-aminoacylation was 0.743 with biotinyl-Phe-oxazolone; 0.616 with biotinyl-Leu-oxazolone; 0.622 in the data set on biotinyl-Met-oxazolone; 0.502 in the data set with biotinyl-Trp-oxazolone; 0.658 in the data set with biotinyl-Ile-oxazolone; 0.706 with biotinyl-Val-oxazolone.
Consider “CCACACUUCAAGCAACCUGUC [Fam1B.1 aminoacylation ribozyme variant]”, for which the self-aminoacylation with biotinyl-Phe-oxazolone is 0.804; in the data set with biotinyl-Leu-oxazolone, 0.347; in the data set on biotinyl-Met-oxazolone, 0.397; with biotinyl-Trp-oxazolone it was 0.506; in the data set on biotinyl-Ile-oxazolone it was 0.428; in the data set with biotinyl-Val-oxazolone it was 0.62.
On to “GUACUUAAAACAAUCGGUCUG [Fam1A.1 aminoacylation ribozyme variant]”, for which the self-aminoacylation with biotinyl-Phe-oxazolone turned out to be 1.16; in the data set on biotinyl-Leu-oxazolone, 0.926; with biotinyl-Met-oxazolone it was 1.07; in the data set on biotinyl-Trp-oxazolone it was 1.25; in the data set on biotinyl-Ile-oxazolone it was 1.05; with biotinyl-Val-oxazolone, 0.982.
As for “CUACUUCAAACAAUUGGUCUC [Fam1A.1 aminoacylation ribozyme variant]”, the self-aminoacylation in the data set on biotinyl-Phe-oxazolone was 1.2; in the data set with biotinyl-Leu-oxazolone it was 0.601; in the data set on biotinyl-Met-oxazolone, 0.656; in the data set with biotinyl-Trp-oxazolone, 0.818; with biotinyl-Ile-oxazolone, 0.71; with biotinyl-Val-oxazolone, 0.695.
For “CUACUUCAAACACUCGGUAUG [Fam1A.1 aminoacylation ribozyme variant]”, the self-aminoacylation amounted to 0.66 with biotinyl-Phe-oxazolone; 0.711 in the data set on biotinyl-Leu-oxazolone; 0.77 in the data set with biotinyl-Met-oxazolone; 1.04 in the data set on biotinyl-Trp-oxazolone; 0.931 with biotinyl-Ile-oxazolone; 1.05 in the data set on biotinyl-Val-oxazolone.
Take “CCACACUUAAAGAAAUCGGUC [Fam1B.1 aminoacylation ribozyme variant]”: the self-aminoacylation with biotinyl-Phe-oxazolone came out at 0.562; in the data set on biotinyl-Leu-oxazolone it was 0.749; in the data set on biotinyl-Met-oxazolone, 0.734; in the data set on biotinyl-Trp-oxazolone, 0.679; in the data set with biotinyl-Ile-oxazolone, 0.754; in the data set with biotinyl-Val-oxazolone, 0.785.
Consider “AAGUUUGCUAAUUGUCGGAAG [Fam3.1 aminoacylation ribozyme variant]”, for which the self-aminoacylation in the data set on biotinyl-Phe-oxazolone came to 0.977; in the data set with biotinyl-Leu-oxazolone, 1.2; in the data set on biotinyl-Met-oxazolone, 0.821; with biotinyl-Trp-oxazolone it was 1.15; with biotinyl-Ile-oxazolone, 1.01; in the data set on biotinyl-Val-oxazolone, 0.884.
